# Primary screen of a compound library

Amino acid sequences for entries named in this document (tags omitted).
UniProt E9BF75, entry or part of it: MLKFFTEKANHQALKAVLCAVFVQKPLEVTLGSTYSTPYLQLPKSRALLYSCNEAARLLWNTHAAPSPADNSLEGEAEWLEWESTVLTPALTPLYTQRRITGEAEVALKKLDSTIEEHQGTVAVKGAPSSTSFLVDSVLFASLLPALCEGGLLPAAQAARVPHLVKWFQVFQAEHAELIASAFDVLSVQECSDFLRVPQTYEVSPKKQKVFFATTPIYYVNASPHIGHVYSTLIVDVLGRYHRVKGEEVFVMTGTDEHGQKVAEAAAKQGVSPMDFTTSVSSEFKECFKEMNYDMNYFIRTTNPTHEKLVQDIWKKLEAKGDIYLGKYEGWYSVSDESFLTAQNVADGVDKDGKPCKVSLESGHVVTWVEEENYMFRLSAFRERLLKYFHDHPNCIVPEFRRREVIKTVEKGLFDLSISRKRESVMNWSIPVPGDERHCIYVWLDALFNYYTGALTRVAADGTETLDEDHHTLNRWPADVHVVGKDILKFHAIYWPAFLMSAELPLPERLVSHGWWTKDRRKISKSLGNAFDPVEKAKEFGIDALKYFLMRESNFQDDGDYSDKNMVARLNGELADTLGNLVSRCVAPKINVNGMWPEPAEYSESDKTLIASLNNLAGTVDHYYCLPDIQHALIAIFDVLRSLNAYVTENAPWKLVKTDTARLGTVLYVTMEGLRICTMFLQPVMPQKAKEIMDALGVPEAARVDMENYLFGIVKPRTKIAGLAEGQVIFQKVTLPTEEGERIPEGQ

From ChEMBL document CHEMBL3988442, “University of Dundee, Small-Polar-MMV Screening Library” (2021).

Mtb heat-shock: 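Assay on Mycobacterium tuberculosis, filed only as a heat shock assay from Cornell; the read-out is not stated. The concentration is filed as 10 mM, unlikely as a test dose, so the dose is not known. Direction is inferred from retests: higher values go with stronger inhibition. About 69,000 compounds were tested under these conditions; 1.4% (about 930) showed 50% or more at least once.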
LdMetRS: 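Primary screen of methionyl-tRNA synthetase; the read-out is not stated. Target: Methionyl-tRNA synthetase (putative), Leishmania donovani (UniProt E9BF75). The test concentration is not given. Values are per cent inhibition. Of about 68,000 compounds tested this way, about 24 (0.035%) reached 50% or more in at least one test.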
Mtb growth Cornell: 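Whole-cell assay for inhibitors of Mycobacterium tuberculosis growth, labelled Cornell in the record; the read-out is not stated. The concentration is filed as 10 mM, unlikely as a test dose, so the dose is not known. The record gives no direction; compounds strong in two other growth screens of this library score well above the rest, so higher reads as stronger inhibition. Size under these conditions: about 53,000 compounds, about 900 of them at 50% or above in at least one test.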

Results are percentages, as filed.
The controls that fix the scale are not given in the record; negative values are as filed.
The compounds are a random part of those screened.

compound: CCOC(=O)C1(Cc2cccc(OC)c2)CCN(Cc2ncc[nH]2)CC1
Mtb heat-shock: -2.959
LdMetRS: 12.06
Mtb growth Cornell: 20.44

compound: O=C(NCc1ccccc1)[C@H]1C[C@@H]2CN(S(=O)(=O)C3CC3)C[C@H]1O2
LdMetRS: 16.74

compound: CCC(CNc1ncnc2oc(C)nc12)Cc1ccccc1 (centres unmarked)
Mtb heat-shock: -2.545
LdMetRS: 15.47

compound: [H][C@]12CC[C@]([H])(CN(C(=O)c3ccccc3)C1)N(C(=O)CN1CCOC1=O)C2
Mtb heat-shock: -4.556
Mtb growth Cornell: 33.49

compound: Cc1cc(NC(=O)NCC(c2ccsc2)N(C)C)n(C)n1 (centres unmarked)
Mtb heat-shock: -16.3
LdMetRS: 16.1
Mtb growth Cornell: 6.268

compound: CN(C)CC1(O)CCN(C(=O)Cc2ccc(Cl)c(Cl)c2)C1 (centres unmarked)
Mtb heat-shock: -36.92
LdMetRS: 6.704
Mtb growth Cornell: -11.99

compound: CN(C)CCNCCC(c1ccccc1)C1CCOC(C)(C)C1 (centres unmarked)
LdMetRS: 18.87

compound: Cn1ccnc1C1CCN(S(=O)(=O)c2ccc3c(c2)OCCO3)CC1
Mtb heat-shock: -5.979
LdMetRS: 3.519
Mtb growth Cornell: -5.16

compound: CCOC(C)c1noc(CN2CCN(Cc3cccc(F)c3)CC2)n1 (centres unmarked)
Mtb heat-shock: -0.1847
LdMetRS: 7.343
Mtb growth Cornell: -1.078

compound: Cn1ncc(C(=O)N2CCCC(n3cccn3)C2)c1C1CC1 (centres unmarked)
Mtb heat-shock: 11.69
LdMetRS: 20.28

compound: O=C(O)C(F)(F)F.O=C(O)C(F)(F)F.O=C(O)C(F)(F)F.[H][C@@]12CN(Cc3ccncc3)C[C@]1([H])[C@@H](OC)CCN2Cc1cccs1
Mtb heat-shock: 0.7697
Mtb growth Cornell: 24.46

compound: CC(C)n1ncc2c1NC(=O)CC2c1ccccc1Cl (centres unmarked)
Mtb heat-shock: 11.26
LdMetRS: 17.56
Mtb growth Cornell: 38.48

compound: O=C(CCSc1ccc(F)cc1)NS(=O)(=O)c1ccc2c(c1)OCCO2
Mtb heat-shock: 17.85
LdMetRS: 2.454
Mtb growth Cornell: 8.854

compound: CCN(C(=O)CCc1ccc2c(c1)OCO2)C1CC(=O)NC1=O (centres unmarked)
Mtb heat-shock: -22.66
LdMetRS: 3.361
Mtb growth Cornell: -18.84

compound: Cc1cccc(-c2nccnc2C2CCCN(C)C2)c1 (centres unmarked)
Mtb heat-shock: 3.446
LdMetRS: 16.86
Mtb growth Cornell: 49.56

compound: [H][C@@]12CCCN1CCCN(c1nc(C(C)(C)C)nc3c1cnn3C)C2
Mtb heat-shock: 5.772
Mtb growth Cornell: 30.25

compound: O=C(N1CCCC1)N1Cc2nccn2CC(CN2CCCC2)C1.O=C(O)C(F)(F)F (centres unmarked)
Mtb heat-shock: -12.61
Mtb growth Cornell: 18.1

compound: O=C1OCCN1CCCN1CCCC1c1ccc(O)cc1 (centres unmarked)
Mtb heat-shock: 15.18
LdMetRS: 17.96
Mtb growth Cornell: 13.74

compound: CC(=O)c1c(C)nn(CC(=O)N2CCCC2c2ccc(C(N)=O)s2)c1C (centres unmarked)
Mtb heat-shock: 4.89
LdMetRS: 13.75
Mtb growth Cornell: 0.405

The first 2 entries again:

{"compound": "CCOC(=O)C1(Cc2cccc(OC)c2)CCN(Cc2ncc[nH]2)CC1", "Mtb heat-shock": -2.959, "LdMetRS": 12.06, "Mtb growth Cornell": 20.44}
{"compound": "O=C(NCc1ccccc1)[C@H]1C[C@@H]2CN(S(=O)(=O)C3CC3)C[C@H]1O2", "LdMetRS": 16.74}